# Measurements from the supplement of paper PMC8728848.
# Some of the results follow.
# Columns and labels:
# Test in all cases: glycan array binding signal (z-score within array); higher = stronger binding
# Details in all cases: glycan notation: IUPAC condensed, linker removed
# Fuc(a1-2)Gal = molecular target: Fuc(a1-2)Gal
# How it was run: (§1)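 The binding signal is a Z-score computed within each array. Data were drawn from 3228 arrays in the Consortium for Functional Glycomics database, restricted to those with a known protein sequence. Scores were averaged over arrays of the same protein sequence at different concentrations or buffers, and over linkers, and negative values can be taken as non-binding.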
# Fuc(a1-2)Gal(b1-3)GalNAc = molecular target: Fuc(a1-2)Gal(b1-3)GalNAc
# How it was run: as §1
# [1] = molecular target: Fuc(a1-2)Gal(b1-3)GalNAc(a1-3)[Fuc(a1-2)]Gal(b1-4)Glc
# How it was run: as §1
# [2] = molecular target: Fuc(a1-2)Gal(b1-3)GalNAc(a1-3)[Fuc(a1-2)]Gal(b1-4)GlcNAc
# How it was run: as §1
# [3] = molecular target: Fuc(a1-2)Gal(b1-3)GalNAc(b1-3)Gal
# How it was run: as §1
# [4] = molecular target: Fuc(a1-2)Gal(b1-3)GalNAc(b1-3)Gal(a1-4)Gal(b1-4)Glc
# How it was run: as §1
# [5] = molecular target: Fuc(a1-2)Gal(b1-3)GalNAc(b1-4)[Neu5Ac(a2-3)]Gal(b1-4)Glc
# How it was run: as §1
# Fuc(a1-2)Gal(b1-3)GlcNAc = molecular target: Fuc(a1-2)Gal(b1-3)GlcNAc
# How it was run: as §1
# [6] = molecular target: Fuc(a1-2)Gal(b1-3)GlcNAc(b1-2)Man(a1-3)[Fuc(a1-2)Gal(b1-3)GlcNAc(b1-2)Man(a1-6)]Man(b1-4)GlcNAc(b1-4)GlcNAc
# How it was run: as §1
# [7] = molecular target: Fuc(a1-2)Gal(b1-3)GlcNAc(b1-3)Gal(b1-4)Glc
# How it was run: as §1
# [8] = molecular target: Fuc(a1-2)Gal(b1-3)GlcNAc(b1-3)[Fuc(a1-3)[Gal(b1-4)]GlcNAc(b1-6)]Gal(b1-4)Glc
# How it was run: as §1
# [9] = molecular target: Fuc(a1-2)Gal(b1-3)[Fuc(a1-4)]GlcNAc
# How it was run: as §1
# [10] = molecular target: Fuc(a1-2)Gal(b1-3)[Fuc(a1-4)]GlcNAc(b1-2)Man(a1-3)[Fuc(a1-2)Gal(b1-3)[Fuc(a1-4)]GlcNAc(b1-2)Man(a1-6)]Man(b1-4)GlcNAc(b1-4)GlcNAc
# How it was run: as §1
# [11] = molecular target: Fuc(a1-2)Gal(b1-3)[Fuc(a1-4)]GlcNAc(b1-3)[Fuc(a1-3)[Gal(b1-4)]GlcNAc(b1-6)]Gal(b1-4)Glc
# How it was run: as §1
# [12] = molecular target: Fuc(a1-2)Gal(b1-3)[Fuc(a1-4)]GlcNAc(b1-3)[Gal(b1-4)GlcNAc(b1-6)]Gal(b1-4)Glc
# How it was run: as §1
# Fuc(a1-2)Gal(b1-4)Glc = molecular target: Fuc(a1-2)Gal(b1-4)Glc
# How it was run: as §1
# Fuc(a1-2)Gal(b1-4)Glc6S = molecular target: Fuc(a1-2)Gal(b1-4)Glc6S
# How it was run: as §1
# Fuc(a1-2)Gal(b1-4)GlcNAc = molecular target: Fuc(a1-2)Gal(b1-4)GlcNAc
# How it was run: as §1
# [13] = molecular target: Fuc(a1-2)Gal(b1-4)GlcNAc(b1-2)Man(a1-3)[Fuc(a1-2)Gal(b1-4)GlcNAc(b1-2)Man(a1-6)]Man(b1-4)GlcNAc(b1-4)GlcNAc
# How it was run: as §1
# [14] = molecular target: Fuc(a1-2)Gal(b1-4)GlcNAc(b1-3)Gal(b1-4)GlcNAc
# How it was run: as §1
# [15] = molecular target: Fuc(a1-2)Gal(b1-4)GlcNAc(b1-3)Gal(b1-4)GlcNAc(b1-3)Gal(b1-4)GlcNAc
# How it was run: as §1
# [16] = molecular target: Fuc(a1-2)Gal(b1-4)GlcNAc(b1-3)GalNAc
# How it was run: as §1
# [17] = molecular target: Fuc(a1-2)Gal(b1-4)GlcNAc6S
# How it was run: as §1
# [18] = molecular target: Fuc(a1-2)Gal(b1-4)[Fuc(a1-3)]GlcNAc
# How it was run: as §1
# [19] = molecular target: Fuc(a1-2)Gal(b1-4)[Fuc(a1-3)]GlcNAc(b1-2)Man(a1-3)[Fuc(a1-2)Gal(b1-4)[Fuc(a1-3)]GlcNAc(b1-2)Man(a1-6)]Man(b1-4)GlcNAc(b1-4)GlcNAc
# How it was run: as §1
# [20] = molecular target: Fuc(a1-2)Gal(b1-4)[Fuc(a1-3)]GlcNAc(b1-3)Gal(b1-4)[Fuc(a1-3)]GlcNAc
# How it was run: as §1
# [21] = molecular target: Fuc(a1-2)Gal(b1-4)[Fuc(a1-3)]GlcNAc(b1-3)Gal(b1-4)[Fuc(a1-3)]GlcNAc(b1-3)Gal(b1-4)[Fuc(a1-3)]GlcNAc
# How it was run: as §1
# Fuc(a1-2)Gal6S(b1-4)Glc = molecular target: Fuc(a1-2)Gal6S(b1-4)Glc
# How it was run: as §1
# [22] = molecular target: Fuc(a1-2)Gal6S(b1-4)Glc6S
# How it was run: as §1
# [23] = molecular target: Fuc(a1-2)Gal6S(b1-4)GlcNAc
# How it was run: as §1
# Fuc(a1-2)[Gal(a1-3)]Gal = molecular target: Fuc(a1-2)[Gal(a1-3)]Gal
# How it was run: as §1
# [24] = molecular target: Fuc(a1-2)[Gal(a1-3)]Gal(b1-3)GlcNAc
# How it was run: as §1
# [25] = molecular target: Fuc(a1-2)[Gal(a1-3)]Gal(b1-3)GlcNAc(b1-2)Man(a1-3)[Fuc(a1-2)[Gal(a1-3)]Gal(b1-3)GlcNAc(b1-2)Man(a1-6)]Man(b1-4)GlcNAc(b1-4)GlcNAc
# How it was run: as §1
# [26] = molecular target: Fuc(a1-2)[Gal(a1-3)]Gal(b1-4)Glc
# How it was run: as §1
# [27] = molecular target: Fuc(a1-2)[Gal(a1-3)]Gal(b1-4)GlcNAc
# How it was run: as §1
# [28] = molecular target: Fuc(a1-2)[Gal(a1-3)]Gal(b1-4)GlcNAc(b1-2)Man(a1-3)[Fuc(a1-2)[Gal(a1-3)]Gal(b1-4)GlcNAc(b1-2)Man(a1-6)]Man(b1-4)GlcNAc(b1-4)GlcNAc
# How it was run: as §1
# [29] = molecular target: Fuc(a1-2)[Gal(a1-3)]Gal(b1-4)[Fuc(a1-3)]GlcNAc
# How it was run: as §1
# [30] = molecular target: Fuc(a1-2)[Gal(a1-4)]Gal(b1-4)GlcNAc
# How it was run: as §1
# [31] = molecular target: Fuc(a1-2)[GalNAc(a1-3)]Gal
# How it was run: as §1
# [32] = molecular target: Fuc(a1-2)[GalNAc(a1-3)]Gal(b1-3)GalNAc(a1-3)[Fuc(a1-2)]Gal(b1-4)GlcNAc
# How it was run: as §1
# [33] = molecular target: Fuc(a1-2)[GalNAc(a1-3)]Gal(b1-3)GlcNAc
# How it was run: as §1
# [34] = molecular target: Fuc(a1-2)[GalNAc(a1-3)]Gal(b1-3)GlcNAc(b1-2)Man(a1-3)[Fuc(a1-2)[GalNAc(a1-3)]Gal(b1-3)GlcNAc(b1-2)Man(a1-6)]Man(b1-4)GlcNAc(b1-4)GlcNAc
# How it was run: as §1
# [35] = molecular target: Fuc(a1-2)[GalNAc(a1-3)]Gal(b1-4)Glc
# How it was run: as §1
# [36] = molecular target: Fuc(a1-2)[GalNAc(a1-3)]Gal(b1-4)GlcNAc
# How it was run: as §1
# [37] = molecular target: Fuc(a1-2)[GalNAc(a1-3)]Gal(b1-4)GlcNAc(b1-2)Man(a1-3)[Fuc(a1-2)[GalNAc(a1-3)]Gal(b1-4)GlcNAc(b1-2)Man(a1-6)]Man(b1-4)GlcNAc(b1-4)GlcNAc
# How it was run: as §1
binder,measurement,setting,value
"BSR4 (Toxoplasma gondii), Q95NL6 (protein) MVMMGSMQQRRGGLRSNARQLLAVCMSGVVFFSSGQAVADNLLEGLLHRTLQQQVEVTSRLTVAGSDAKCDFFTPATQDSPPVSGSLTLSKGRMTATFECSATQALSISTIPTNIEQNVCDPKKTTNGTVCQFGANGSAGTEVTLKDLLETDRIVNWKVNEQREESNKSQKWSLELHNEDLPLTDKAFVVGCQATSAARGTESGKTAACKLTVNVEARASSLAENNVVTCAYGKGSNPNPVEVEMSTEKNTLTINCGSDGSLQPTTYAEEYCVADSKDVNRCSTTRFVEIFPKFLKSWWVTETQKRTSATLTIPQTDLPEADQQFLVGCVPKKTAPEDPKKDKESGTETGAPTSCTVLVTVKAASSASHASPTVQILAAASSAAA",glycan array binding signal (z-score),Fuc(a1-2)Gal,0.122
same,glycan array binding signal (z-score),Fuc(a1-2)Gal(b1-3)GalNAc,0.321
same,glycan array binding signal (z-score),[1],0.305
same,glycan array binding signal (z-score),[2],-0.631
same,glycan array binding signal (z-score),[3],0.218
same,glycan array binding signal (z-score),[4],-0.249
same,glycan array binding signal (z-score),[5],-0.267
same,glycan array binding signal (z-score),Fuc(a1-2)Gal(b1-3)GlcNAc,-0.078
same,glycan array binding signal (z-score),[6],0.642
same,glycan array binding signal (z-score),[7],-0.546
same,glycan array binding signal (z-score),[8],-0.452
same,glycan array binding signal (z-score),[9],0.187
same,glycan array binding signal (z-score),[10],0.444
same,glycan array binding signal (z-score),[11],-0.043
same,glycan array binding signal (z-score),[12],-0.244
same,glycan array binding signal (z-score),Fuc(a1-2)Gal(b1-4)Glc,-0.73
same,glycan array binding signal (z-score),Fuc(a1-2)Gal(b1-4)Glc6S,0.481
same,glycan array binding signal (z-score),Fuc(a1-2)Gal(b1-4)GlcNAc,-0.406
same,glycan array binding signal (z-score),[13],0.28
same,glycan array binding signal (z-score),[14],0.36
same,glycan array binding signal (z-score),[15],0.028
same,glycan array binding signal (z-score),[16],0.241
same,glycan array binding signal (z-score),[17],-0.516
same,glycan array binding signal (z-score),[18],0.395
same,glycan array binding signal (z-score),[19],1.41
same,glycan array binding signal (z-score),[20],0.181
same,glycan array binding signal (z-score),[21],0.448
same,glycan array binding signal (z-score),Fuc(a1-2)Gal6S(b1-4)Glc,0.399
same,glycan array binding signal (z-score),[22],0.24
same,glycan array binding signal (z-score),[23],0.894
same,glycan array binding signal (z-score),Fuc(a1-2)[Gal(a1-3)]Gal,0.054
same,glycan array binding signal (z-score),[24],-0.527
same,glycan array binding signal (z-score),[25],-0.282
same,glycan array binding signal (z-score),[26],-0.614
same,glycan array binding signal (z-score),[27],0.306
same,glycan array binding signal (z-score),[28],-0.25
same,glycan array binding signal (z-score),[29],1.17
same,glycan array binding signal (z-score),[30],-0.293
same,glycan array binding signal (z-score),[31],0.465
same,glycan array binding signal (z-score),[32],0.417
same,glycan array binding signal (z-score),[33],0.482
same,glycan array binding signal (z-score),[34],-0.427
same,glycan array binding signal (z-score),[35],0.303
same,glycan array binding signal (z-score),[36],-0.073
same,glycan array binding signal (z-score),[37],-0.071

# Retrieved one by one from above (two):
binder,measurement,setting,value
"BSR4 (Toxoplasma gondii), Q95NL6 (protein) MVMMGSMQQRRGGLRSNARQLLAVCMSGVVFFSSGQAVADNLLEGLLHRTLQQQVEVTSRLTVAGSDAKCDFFTPATQDSPPVSGSLTLSKGRMTATFECSATQALSISTIPTNIEQNVCDPKKTTNGTVCQFGANGSAGTEVTLKDLLETDRIVNWKVNEQREESNKSQKWSLELHNEDLPLTDKAFVVGCQATSAARGTESGKTAACKLTVNVEARASSLAENNVVTCAYGKGSNPNPVEVEMSTEKNTLTINCGSDGSLQPTTYAEEYCVADSKDVNRCSTTRFVEIFPKFLKSWWVTETQKRTSATLTIPQTDLPEADQQFLVGCVPKKTAPEDPKKDKESGTETGAPTSCTVLVTVKAASSASHASPTVQILAAASSAAA",glycan array binding signal (z-score),[21],0.448
same,glycan array binding signal (z-score),Fuc(a1-2)Gal(b1-3)GlcNAc,-0.078
